To fix the notation:
T1: rhesus CD11a (rhesus) (UniProt H9Z8N3)
T1 sequence: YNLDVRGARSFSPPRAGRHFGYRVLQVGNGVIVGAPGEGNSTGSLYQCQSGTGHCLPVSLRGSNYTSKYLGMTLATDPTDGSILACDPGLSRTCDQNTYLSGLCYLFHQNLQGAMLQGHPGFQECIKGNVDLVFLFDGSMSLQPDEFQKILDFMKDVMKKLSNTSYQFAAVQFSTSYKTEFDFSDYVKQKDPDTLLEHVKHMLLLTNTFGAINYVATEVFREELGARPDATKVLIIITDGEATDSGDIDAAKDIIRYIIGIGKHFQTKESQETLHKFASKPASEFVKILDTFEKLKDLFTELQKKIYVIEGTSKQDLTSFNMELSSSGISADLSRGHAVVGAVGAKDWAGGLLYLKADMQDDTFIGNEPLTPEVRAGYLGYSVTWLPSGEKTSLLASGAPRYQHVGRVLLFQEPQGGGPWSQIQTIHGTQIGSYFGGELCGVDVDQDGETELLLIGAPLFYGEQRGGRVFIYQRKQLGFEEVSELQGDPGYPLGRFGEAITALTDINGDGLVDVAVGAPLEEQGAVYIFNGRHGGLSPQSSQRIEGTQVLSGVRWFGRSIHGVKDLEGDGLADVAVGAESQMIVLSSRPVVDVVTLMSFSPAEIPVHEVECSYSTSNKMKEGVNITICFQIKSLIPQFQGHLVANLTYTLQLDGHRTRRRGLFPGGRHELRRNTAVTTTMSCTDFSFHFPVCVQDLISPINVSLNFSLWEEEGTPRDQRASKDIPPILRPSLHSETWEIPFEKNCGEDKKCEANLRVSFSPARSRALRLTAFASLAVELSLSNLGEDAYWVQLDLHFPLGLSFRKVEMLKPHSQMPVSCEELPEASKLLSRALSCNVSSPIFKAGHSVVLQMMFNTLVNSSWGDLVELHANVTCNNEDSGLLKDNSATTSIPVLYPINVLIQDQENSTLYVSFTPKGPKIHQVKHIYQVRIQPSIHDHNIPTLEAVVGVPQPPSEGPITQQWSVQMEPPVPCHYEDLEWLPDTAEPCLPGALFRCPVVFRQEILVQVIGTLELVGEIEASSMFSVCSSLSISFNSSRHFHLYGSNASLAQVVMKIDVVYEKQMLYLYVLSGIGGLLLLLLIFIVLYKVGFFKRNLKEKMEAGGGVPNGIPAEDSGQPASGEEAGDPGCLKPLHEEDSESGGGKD

B1: rhesus-binding MHM24 RhIgG1 (antibody, V domains shown)
VH: EVQLVESGGGLVQPGGSLRLSCAASGYSFTGHWMNWVRQAPGKGLEWVGMIAPASSSTRYNQKFKDRFTISVDKSKNTLYLQMNSLRAEDTAVYYCARGIYFYGTTYFDYWGQGTLVTVSS
VL: DIQMTQSPSSLSASVGDRVTITCRASKTISKYLAWYQQKPGKAPKLLIYSGSTLQSGVPSRFSGSGSGTDFTLTISSLQPEDFATYYCQQHNEYPLTFGQGTKVEIKR
B2: AspH54Leu (antibody, human IgG1, V domains shown)
VH: B1 VH with A52H, A54S, S55L, S57E
VL: DIQMTQSPSSLSASVGDRVTITCRASKTISKYLAWYQQKPGKAPKLLIYSGSTLQSGVPSRFSGSGSGTDFTLTISSLQPEDFATYYCQQHNEYPLTFGQGTKVEIK
B3: AspH54Met (antibody, human IgG1, V domains shown)
VH: B1 VH with A52H, A54S, S55M, S57E
VL: B2 VL
B4: AspH54His (antibody, human IgG1, V domains shown)
VH: B1 VH with A52H, A54S, S55H, S57E
VL: B2 VL
B5: AspH54Thr (antibody, human IgG1, V domains shown)
VH: B1 VH with A52H, A54S, S55T, S57E
VL: B2 VL
B6: AspH54Arg (antibody, human IgG1, V domains shown)
VH: B1 VH with A52H, A54S, S55R, S57E
VL: B2 VL
B7: AspH54Glu (antibody, human IgG1, V domains shown)
VH: B1 VH with A52H, A54S, S55E, S57E
VL: B2 VL
B8: TyrH99Ala (antibody, human IgG1, V domains shown)
VH: B1 VH with A52H, A54S, S55D, S57E, Y103A
VL: B2 VL
B9: ThrH100bAla (antibody, human IgG1, V domains shown)
VH: B1 VH with A52H, A54S, S55D, S57E, T106A
VL: B2 VL
B10: TyrH100cAla (antibody, human IgG1, V domains shown)
VH: B1 VH with A52H, A54S, S55D, S57E, Y107A
VL: B2 VL
B11: H3B (antibody, human IgG1, V domains shown)
VH: B1 VH with A52H, A54S, S55D, S57E, T105A, T106A, Y107A
VL: B2 VL
B12: TyrL94Ala (antibody, human IgG1, V domains shown)
VH: B1 VH with A52H, A54S, S55D, S57E
VL: B1 VL with Y94A
B13: H1 (antibody, human IgG1, V domains shown)
VH: B1 VH with S28A, T30A, H32A, A52H, A54S, S55D, S57E
VL: B2 VL
B14: H2B (antibody, human IgG1, V domains shown)
VH: B1 VH with A52H, A54S, S55A, S57A, R59A
VL: B2 VL
B15: ThrH100aAla (antibody, human IgG1, V domains shown)
VH: B1 VH with A52H, A54S, S55D, S57E, T105A
VL: B2 VL
B16: TyrH97Ala (antibody, human IgG1, V domains shown)
VH: B1 VH with A52H, A54S, S55D, S57E, Y101A
VL: B2 VL
B17: L2 (antibody, human IgG1, V domains shown)
VH: B1 VH with A52H, A54S, S55D, S57E
VL: B1 VL with S50A, S52A, T53A
B18: HisL91Ala (antibody, human IgG1, V domains shown)
VH: B1 VH with A52H, A54S, S55D, S57E
VL: B1 VL with H91A
B19: LysH73Ala (antibody, human IgG1, V domains shown)
VH: B1 VH with A52H, A54S, S55D, S57E, K74A
VL: B2 VL
B20: SerH55Asn (antibody, human IgG1, V domains shown)
VH: B1 VH with A52H, A54S, S55D, S56N, S57E
VL: B2 VL
B21: HisH52Ser (antibody, human IgG1, V domains shown)
VH: B1 VH with A52S, A54S, S55D, S57E
VL: B2 VL
B22: SerH28Ala (antibody, human IgG1, V domains shown)
VH: B1 VH with S28A, A52H, A54S, S55D, S57E
VL: B2 VL
B23: TrpH33Ala (antibody, human IgG1, V domains shown)
VH: B1 VH with W33A, A52H, A54S, S55D, S57E
VL: B2 VL
B24: L3 (antibody, human IgG1, V domains shown)
VH: B1 VH with A52H, A54S, S55D, S57E
VL: B1 VL with N92A, E93A, Y94A
B25: HisH32Ala (antibody, human IgG1, V domains shown)
VH: B1 VH with H32A, A52H, A54S, S55D, S57E
VL: B2 VL

Our source for the binding values is US20100136005A1.

Substitutions are numbered along the chain they refer to. Names and notes keep the numbering of the source. Results are given in words; binding and its absence hold for the method and conditions named. Some binding calls cover weakened binding; strength is not graded here. For part of these data: Tags and fused reporters may be left off the sequences shown.

One assay addresses T1, rhesus CD11a (rhesus). The experiment in a line: saturation binding, rhesus leukocytes.
B1: the binding result was “binds”.

The target in another assay is T1, rhesus CD11a (rhesus). The experiment in a line: binding to rhesus peripheral blood lymphocytes.
Turning to B1, the binding result was “binds”.

Turning to B2, the binding result was “no binding (tested: Variant EC50/HuIgG1 EC50 >25)”.

With B3, the binding result is recorded as “no binding (tested: Variant EC50/HuIgG1 EC50 >25)”. Regarding B4, the binding result is on record as “no binding (tested: Variant EC50/HuIgG1 EC50 >25)”. As for B5, the binding entry is “no binding (tested: Variant EC50/HuIgG1 EC50 >25)”.

Turning to B6, the binding entry is given as “no binding (tested: Variant EC50/HuIgG1 EC50 >25)”. Consider B7, for which the binding entry was “no binding (tested: Variant EC50/HuIgG1 EC50 >25)”.

The target of another assay is T1, rhesus CD11a (rhesus). Kind of assay: saturation binding with and without 1 mg/ml human IgG1; adhesion assays.
For B1, the binding entry was “binds”.

The target of a further assay is T1, rhesus CD11a (rhesus). The experiment in a line: condition: greater than 10-fold weaker than HuIgG1 (EC50 45.6 nM); binding to rhesus peripheral blood lymphocytes.
For the molecule B8, the binding entry was “no binding”. Take B9: the binding result was “no binding”. As to B10, the binding entry was “no binding”. In the case of B11, the binding entry is “no binding”. B12: the binding entry is recorded as “no binding”.

For the molecule B13, the binding result is given as “no binding”. As for B14, the binding entry is given as “no binding”. B15: the binding entry was “no binding”. Turning to B16, the binding entry is reported as “no binding”.

With B17, the binding result was “no binding”.

Consider B18, for which the binding result is “no binding”. As for B19, the binding entry was “no binding”. With B20, the binding result is listed as “no binding”.

Regarding B21, the binding entry is “no binding”. As for B22, the binding result is “no binding”. Consider B23, for which the binding result is on record as “no binding”. As for B24, the binding result is given as “no binding”. On the same count and under the same terms, with B25 the entry was “no binding”.
